# The whole screen tested about 400,000 compounds, of which about 3,700 (0.93%) were called active. This list was built around the results that the source calls inconclusive (neither active nor inactive); the mix of calls is not that of the screen. The call rests on the fitted dose curve; in most records, active means well fitted inhibition curve with a large enough effect; inconclusive means small, poorly fitted or top-dose-only effect, or another doubt; inactive means no such curve, though single readings can be large or run the other way. Potencies beside an inconclusive call are fits to weak or partial responses and may not hold up.
# The chains behind the UniProt entries cited, without tags or fusion partners. Where a name states a change or a piece, a line headed by the entry shows the natural chain unless it says otherwise.
# UniProt P11473: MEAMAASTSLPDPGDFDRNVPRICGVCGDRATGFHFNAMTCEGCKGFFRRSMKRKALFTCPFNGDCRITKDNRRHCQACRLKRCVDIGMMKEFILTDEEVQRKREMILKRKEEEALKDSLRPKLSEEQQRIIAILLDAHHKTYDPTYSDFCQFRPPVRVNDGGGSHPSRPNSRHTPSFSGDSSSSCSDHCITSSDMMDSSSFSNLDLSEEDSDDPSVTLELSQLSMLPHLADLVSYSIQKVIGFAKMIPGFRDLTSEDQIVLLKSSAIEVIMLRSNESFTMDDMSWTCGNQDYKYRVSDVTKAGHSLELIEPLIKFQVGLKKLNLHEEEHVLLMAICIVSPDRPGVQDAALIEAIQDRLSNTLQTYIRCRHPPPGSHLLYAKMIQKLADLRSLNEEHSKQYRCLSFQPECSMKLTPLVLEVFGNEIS
# Molecular target: Vitamin D3 receptor (Homo sapiens) (UniProt P11473)
# Assay: Inhibitors of the vitamin D receptor (VDR): qHTS
# Conditions: VDR-SRC2-3 peptide fluorescence polarization, 2 h; max response, negative = inhibition: active compounds read low
# Summary of the method: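 Reagent solutions, kept cold and dark, are dispensed first; compounds are then pinned in at 23 nl, plates briefly spun, and incubated 2 h at ambient temperature. Inhibition of VDR–SRC2-3 peptide binding is read by fluorescence polarization.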
# On the % scale 0 is the no-effect control and ±100 the full control effect; potency means the concentration at half of the fitted maximal effect.
SMILES,Potency,"max response, negative = inhibition"
C/C(=N\Nc1nc(C(C)(C)C)cs1)c1ccc(O)cc1,"inconclusive: 70.8 µM [inhibitor, partial curve, poor fit]",
CN(C)c1ncnc2c1NC1=C(S2)C(=NCCCC(=O)O)CC(C)(C)C1,"inconclusive: 89.1 µM [inhibitor, single point]",
CC(=O)Nc1ccc(SCC(=O)c2ccc(Br)s2)cc1,"inconclusive: 63.1 µM [inhibitor, partial curve, poor fit]",
CCOC(=O)Cc1csc(NC(=O)COc2cc(C)cc(C)c2)n1,"inconclusive: 100 µM [inhibitor, single point]",
O=C(O)CN1CCc2ccccc2C1,"inconclusive: 89.1 µM [inhibitor, partial curve, poor fit]",
O=C(COc1ccc(Cl)cc1[N+](=O)[O-])N/N=C/c1cccs1,"inconclusive: 100 µM [inhibitor, partial curve, poor fit]",
CC(=O)Oc1ccc(/C=C2\N=C(C3CCCCC3)OC2=O)cc1,active: 79.4 µM,
O=C(CC(=O)c1ccccc1)CC(O)(C=Cc1ccccc1)c1ccccc1 (stereo unspecified),,inactive: -23.3%
CCc1ccc(-n2cccc2/C=C2/C(=N)N3C(=NC2=O)SN=C3S(C)(=O)=O)cc1,"inconclusive: 56.2 µM [inhibitor, partial curve, poor fit]",
Cc1nc(Nc2ccc(Br)cc2Br)c([N+](=O)[O-])c(=O)[nH]1,"inconclusive: 39.8 µM [inhibitor, single point]",
COc1ccccc1-n1c(-c2ccc(Cl)cc2)c[nH]c1=S,,inactive: -24.5%
O=C(CCCCCCC(=O)c1ccccc1)c1ccccc1,,inactive: 11.2%
CC[C@H]1C=C[C@@H](C(C(=O)OC)C(=O)OC)CN1C(C)=O,active: 79.4 µM,
C=CCN(CC=C)C(=S)NC(=O)/C=C/c1ccccc1,active: 20 µM,
CCOC(=O)c1cc(C#N)c(SCC(=O)c2cc(C#N)c(SC)nc2C)[nH]c1=O,"inconclusive: 28.2 µM [inhibitor, partial curve, poor fit]",
CSCCC(NS(=O)(=O)c1cc(C(=O)O)ccc1Cl)C(=O)O (stereo unspecified),"inconclusive: 100 µM [inhibitor, partial curve, poor fit]",
COc1ccccc1NC(=O)C1=C(C)Nc2nc(SCc3ccccc3)nn2C1c1cccnc1 (stereo unspecified),,inactive: -10.1%
O=C(O)C1Nc2c(Cl)cc(Cl)c(Cl)c2C2C=CCC12 (stereo unspecified),"inconclusive: 63.1 µM [inhibitor, partial curve, poor fit]",
CCCCCSc1nnc(-c2cc(Br)ccc2N)c(=O)[nH]1,,inactive: 12.9%
COc1ccc(C2CC(=O)C(CS(=O)(=O)c3ccccc3)C(=O)C2)cc1 (stereo unspecified),"inconclusive: 28.2 µM [inhibitor, single point]",
Cc1cc(SCC(=O)c2ccc(Cl)cc2)nc(=O)[nH]1,"inconclusive: 17.8 µM [inhibitor, full curve]",

SMILES,Potency,"max response, negative = inhibition"
Cc1noc(C)c1CSCC(=O)Nc1nc(-c2ccc(F)c(F)c2)cs1,"inconclusive: 39.8 µM [inhibitor, single point]",
CCOc1ccc(-c2cc(NC(=O)c3c(F)cccc3F)c(C(=O)O)s2)cc1,"inconclusive: 79.4 µM [inhibitor, partial curve, poor fit]",
COC(=O)/C=C/COc1ccccc1[N+](=O)[O-],"inconclusive: 25.1 µM [inhibitor, partial curve, poor fit]",
COc1ccc(CCNC(=O)c2ccc3c(c2)N(Cc2ccc(F)cc2)CCS3)cc1OC,"inconclusive: 100 µM [inhibitor, partial curve, poor fit]",
CCCCN=C1NN=C(c2cccc([N+](=O)[O-])c2)CS1,"inconclusive: 79.4 µM [inhibitor, partial curve, poor fit]",
O=C(OCn1ncc(Br)c(Br)c1=O)c1ccccc1Cl,active: 22.4 µM,
CCc1c(C)sc(NC(=O)Cn2nc(C)c([N+](=O)[O-])c2C)c1C(N)=O,"inconclusive: 89.1 µM [inhibitor, single point]",
Nc1c(N(Cc2ccco2)C(=O)c2ccc(Cl)cc2)c(=O)[nH]c(=O)n1Cc1ccccc1,"inconclusive: 89.1 µM [inhibitor, single point]",
COc1ccc(CNC(=O)COC(=O)c2ccc(F)c(S(=O)(=O)N3CCCCC3)c2)cc1OC,,inactive: -13.5%
CCc1cccc2c3c([nH]c12)[C@@](CC)(CC(=O)O)OCC3,"inconclusive: 39.8 µM [inhibitor, partial curve, poor fit]",
Cc1nnc(SCc2ccc([N+](=O)[O-])cc2)o1,"inconclusive: 31.6 µM [inhibitor, single point]",
c1ccc(-c2cc(N3CCCCC3)nc(-c3ccccc3)n2)cc1,"inconclusive: 5.62 µM [inhibitor, partial curve, poor fit]",
O=C(CC1C(=O)NCCN1CC1CCCCC1)NCc1cc(F)ccc1F (stereo unspecified),"inconclusive: 39.8 µM [inhibitor, full curve, poor fit]",
CC1CCN(C(=O)CCNS(=O)(=O)c2ccc(Br)cc2)CC1,"inconclusive: 2.82 µM [inhibitor, partial curve, poor fit]",
Nc1ccc2cc3ccc(N)cc3nc2c1,"inconclusive: 44.7 µM [inhibitor, partial curve, poor fit]",
Cc1ccsc1C1C(C#N)=C(N)Oc2n[nH]c(C)c21 (stereo unspecified),"inconclusive: 89.1 µM [inhibitor, single point]",
COc1ccccc1-c1ccc2ncnc(NCCNC(C)=O)c2c1,"inconclusive: 56.2 µM [inhibitor, partial curve, poor fit]",
C/C(=N\NC(=O)c1cc(-c2ccncc2)nc2ccccc12)c1ccc(N2CCOCC2)cc1,,inactive: -16%
CCNC(=O)/C(C#N)=C/c1c(N2CCN(c3ccc(OC)cc3)CC2)nc2c(C)cccn2c1=O,"inconclusive: 31.6 µM [inhibitor, partial curve, poor fit]",
COc1ccc(N2CC(NC(=O)C3CC3)CC2=O)cc1OC (stereo unspecified),,inactive: 15.8%

# Looked up above.
# max response, negative = inhibition with `COc1ccc(CNC(=O)COC(=O)c2ccc(F)c(S(=O)(=O)N3CCCCC3)c2)cc1OC` reads inactive: -13.5%
# Potency with `CCc1cccc2c3c([nH]c12)[C@@](CC)(CC(=O)O)OCC3` reads inconclusive: 39.8 µM [inhibitor, partial curve, poor fit]
# Potency with `COc1ccc(CCNC(=O)c2ccc3c(c2)N(Cc2ccc(F)cc2)CCS3)cc1OC` reads inconclusive: 100 µM [inhibitor, partial curve, poor fit]
# max response, negative = inhibition with `COc1ccc(N2CC(NC(=O)C3CC3)CC2=O)cc1OC` (stereo unspecified) reads inactive: 15.8%
